The values that follow come from publication PMC9017934.

The target in this assay is T1, Mitogen-activated protein Kinase Kinase (MKK3), full length (human), P46734.
T1 chain: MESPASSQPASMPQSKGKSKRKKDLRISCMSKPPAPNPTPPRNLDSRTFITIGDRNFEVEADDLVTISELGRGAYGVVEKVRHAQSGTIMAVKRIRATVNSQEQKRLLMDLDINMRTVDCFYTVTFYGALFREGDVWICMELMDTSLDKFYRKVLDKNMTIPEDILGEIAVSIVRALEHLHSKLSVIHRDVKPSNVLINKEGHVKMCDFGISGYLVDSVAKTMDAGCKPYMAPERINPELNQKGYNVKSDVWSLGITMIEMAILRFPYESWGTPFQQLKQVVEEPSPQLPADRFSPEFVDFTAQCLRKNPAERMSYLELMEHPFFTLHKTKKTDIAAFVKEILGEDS
The experiment in a line: SEC; Superdex 75 Increase 10/300 GL after His Trap; 50 mM Tris HCl pH 8, 150 mM NaCl, 0.25 mM TCEP; 4°C; molecular weights of the peaks estimated from a calibration curve of LMW standards; kinases from all strains except Arctic Express; both purified. To be noted: remark: other sources report otherwise.

These are yes or no findings as the source states them, for the method shown. Some binding calls cover weakened binding; strength is not graded here.

B1: Mitogen-activated protein Kinase Kinase (MKK3), full length, P46734-1 1-347 (enzyme)
chain: MESPASSQPASMPQSKGKSKRKKDLRISCMSKPPAPNPTPPRNLDSRTFITIGDRNFEVEADDLVTISELGRGAYGVVEKVRHAQSGTIMAVKRIRATVNSQEQKRLLMDLDINMRTVDCFYTVTFYGALFREGDVWICMELMDTSLDKFYRKVLDKNMTIPEDILGEIAVSIVRALEHLHSKLSVIHRDVKPSNVLINKEGHVKMCDFGISGYLVDSVAKTMDAGCKPYMAPERINPELNQKGYNVKSDVWSLGITMIEMAILRFPYESWGTPFQQLKQVVEEPSPQLPADRFSPEFVDFTAQCLRKNPAERMSYLELMEHPFFTLHKTKKTDIAAFVKEILGEDS
Consider B1, for which the binding result was “binds”.
